Measurements taken from publication PMC7791018.
These are yes or no findings as the source states them, for the method shown. Binding seen in cells or lysates may run through a third protein. Some entries that bind do so weakly or less than the wild type.

Protein sequences, listed by entry. Tags and fused reporters are not part of them. Residues count along the entry.
UniProt O09106: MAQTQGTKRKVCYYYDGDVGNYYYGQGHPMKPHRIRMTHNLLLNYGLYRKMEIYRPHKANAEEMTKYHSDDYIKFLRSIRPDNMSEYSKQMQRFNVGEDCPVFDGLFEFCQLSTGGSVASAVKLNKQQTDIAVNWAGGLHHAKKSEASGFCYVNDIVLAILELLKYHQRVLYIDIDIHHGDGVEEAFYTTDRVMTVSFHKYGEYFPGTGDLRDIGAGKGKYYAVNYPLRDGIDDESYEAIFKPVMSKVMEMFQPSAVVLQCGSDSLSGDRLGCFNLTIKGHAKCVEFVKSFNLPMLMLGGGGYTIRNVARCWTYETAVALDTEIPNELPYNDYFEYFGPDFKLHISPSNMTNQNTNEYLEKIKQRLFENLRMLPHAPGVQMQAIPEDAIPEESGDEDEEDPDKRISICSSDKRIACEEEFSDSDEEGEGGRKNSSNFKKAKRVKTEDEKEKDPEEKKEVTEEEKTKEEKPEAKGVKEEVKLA
UniProt P05067, residues 721-770: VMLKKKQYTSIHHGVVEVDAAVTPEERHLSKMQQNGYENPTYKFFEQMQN
UniProt Q01147: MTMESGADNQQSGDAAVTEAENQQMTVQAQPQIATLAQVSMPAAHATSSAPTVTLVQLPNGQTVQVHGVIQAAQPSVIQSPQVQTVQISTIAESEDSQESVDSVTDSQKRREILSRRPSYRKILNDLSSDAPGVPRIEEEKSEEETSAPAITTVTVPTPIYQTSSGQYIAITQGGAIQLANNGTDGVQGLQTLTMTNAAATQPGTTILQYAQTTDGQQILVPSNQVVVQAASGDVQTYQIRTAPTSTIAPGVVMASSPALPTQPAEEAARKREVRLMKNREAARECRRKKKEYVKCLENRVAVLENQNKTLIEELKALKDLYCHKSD
UniProt Q13547: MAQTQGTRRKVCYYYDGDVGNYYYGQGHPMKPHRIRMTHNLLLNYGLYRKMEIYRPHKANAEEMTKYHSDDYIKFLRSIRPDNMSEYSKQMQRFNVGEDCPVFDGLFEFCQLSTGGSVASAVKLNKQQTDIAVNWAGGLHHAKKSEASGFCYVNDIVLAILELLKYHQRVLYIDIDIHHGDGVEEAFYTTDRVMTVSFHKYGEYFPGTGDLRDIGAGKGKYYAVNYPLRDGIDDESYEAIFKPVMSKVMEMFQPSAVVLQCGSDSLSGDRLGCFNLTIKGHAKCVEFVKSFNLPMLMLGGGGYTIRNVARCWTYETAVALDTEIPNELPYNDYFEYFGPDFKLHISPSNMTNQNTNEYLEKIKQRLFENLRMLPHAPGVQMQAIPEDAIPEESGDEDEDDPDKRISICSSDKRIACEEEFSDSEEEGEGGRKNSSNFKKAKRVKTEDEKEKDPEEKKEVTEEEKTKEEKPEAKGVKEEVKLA
UniProt Q7TQN4: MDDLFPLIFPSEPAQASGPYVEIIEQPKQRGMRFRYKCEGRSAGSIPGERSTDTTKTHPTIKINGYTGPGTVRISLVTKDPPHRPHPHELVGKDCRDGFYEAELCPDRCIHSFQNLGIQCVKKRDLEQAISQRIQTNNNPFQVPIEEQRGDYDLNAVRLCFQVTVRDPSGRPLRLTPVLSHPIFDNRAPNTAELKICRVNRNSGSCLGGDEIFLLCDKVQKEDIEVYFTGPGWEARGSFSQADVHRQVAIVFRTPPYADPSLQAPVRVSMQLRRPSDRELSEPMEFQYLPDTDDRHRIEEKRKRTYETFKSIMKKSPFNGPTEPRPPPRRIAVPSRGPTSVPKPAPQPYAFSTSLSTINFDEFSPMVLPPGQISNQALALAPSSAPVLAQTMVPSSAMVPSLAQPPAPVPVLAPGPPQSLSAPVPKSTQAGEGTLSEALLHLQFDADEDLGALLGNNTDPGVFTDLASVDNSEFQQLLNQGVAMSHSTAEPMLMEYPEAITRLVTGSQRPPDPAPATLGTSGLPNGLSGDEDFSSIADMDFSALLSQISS
UniProt Q04207: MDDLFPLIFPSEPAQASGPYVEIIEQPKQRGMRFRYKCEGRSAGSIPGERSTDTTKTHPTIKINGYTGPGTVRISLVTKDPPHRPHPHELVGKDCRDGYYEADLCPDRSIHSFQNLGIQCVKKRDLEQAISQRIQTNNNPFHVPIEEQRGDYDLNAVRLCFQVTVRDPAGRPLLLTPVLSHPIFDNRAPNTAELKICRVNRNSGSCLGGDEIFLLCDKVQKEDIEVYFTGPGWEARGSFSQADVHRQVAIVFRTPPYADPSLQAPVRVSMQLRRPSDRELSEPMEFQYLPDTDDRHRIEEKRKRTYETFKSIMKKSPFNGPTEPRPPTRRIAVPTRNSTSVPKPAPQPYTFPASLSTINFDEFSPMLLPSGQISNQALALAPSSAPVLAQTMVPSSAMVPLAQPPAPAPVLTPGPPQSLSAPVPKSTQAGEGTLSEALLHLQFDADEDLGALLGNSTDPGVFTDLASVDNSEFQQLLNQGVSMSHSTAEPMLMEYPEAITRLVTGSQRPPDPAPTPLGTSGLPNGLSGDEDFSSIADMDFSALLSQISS

Assays:
[1] = target: HDAC1, endogenous in Neuro2A cells (mouse (endogenous in Neuro2A)) (UniProt O09106); assay: co-IP; Neuro2A cells transfected with control vector, EGFP-AICDWT, EGFP-AICDK43R or EGFP-AICD-SUMO1 plasmid; lysate immunoprecipitated with anti-HDAC1 antibody and immunoblotted with anti-CREB, anti-p65 and anti-HDAC1 antibodies
[2] = target: EGFP-AICD wild-type (AICD50), in HEK293T cells (UniProt P05067); assay: co-IP; HEK293T cells co-transfected with EGFP-tagged AICD plasmids and V5-Fe65 or FLAG-HDAC1 plasmid; lysate 48 h after transfection immunoprecipitated with anti-EGFP antibody and immunoblotted with anti-V5 or anti-FLAG antibody
[3] = target: EGFP-AICD wild-type (AICD50), expressed in the rat hippocampal CA1 area (UniProt P05067); assay: co-IP; EGFP-tagged AICD plasmids transfected into the rat CA1 area (PEI), tissue taken 48 h later; lysate immunoprecipitated with anti-EGFP antibody and immunoblotted with anti-CREB and anti-p65 antibodies

Row | binding [1] | Substance | other results
1 | binds | CREB, endogenous in Neuro2A cells (from UniProt Q01147 1-327) | 
2 |  | FLAG-HDAC1 (from UniProt Q13547 1-482) (enzyme) | binding [2]: binds
3 |  | p65 (a subunit of NF-κB), rat hippocampus (from UniProt Q7TQN4 1-550) | binding [3]: binds
4 | binds | p65, endogenous in Neuro2A cells (from UniProt Q04207 1-549) | 
